Data published in publication PMC4671574.
No constants are given. Whether binding was seen depends on the method and setting. In cells and extracts the contact can be indirect. Here binding means that the protein was enriched with, or labelled near, the bait; the list need not be complete.

T1: Noc2-TAP (S. cerevisiae) (UniProt P39744)
T1 sequence: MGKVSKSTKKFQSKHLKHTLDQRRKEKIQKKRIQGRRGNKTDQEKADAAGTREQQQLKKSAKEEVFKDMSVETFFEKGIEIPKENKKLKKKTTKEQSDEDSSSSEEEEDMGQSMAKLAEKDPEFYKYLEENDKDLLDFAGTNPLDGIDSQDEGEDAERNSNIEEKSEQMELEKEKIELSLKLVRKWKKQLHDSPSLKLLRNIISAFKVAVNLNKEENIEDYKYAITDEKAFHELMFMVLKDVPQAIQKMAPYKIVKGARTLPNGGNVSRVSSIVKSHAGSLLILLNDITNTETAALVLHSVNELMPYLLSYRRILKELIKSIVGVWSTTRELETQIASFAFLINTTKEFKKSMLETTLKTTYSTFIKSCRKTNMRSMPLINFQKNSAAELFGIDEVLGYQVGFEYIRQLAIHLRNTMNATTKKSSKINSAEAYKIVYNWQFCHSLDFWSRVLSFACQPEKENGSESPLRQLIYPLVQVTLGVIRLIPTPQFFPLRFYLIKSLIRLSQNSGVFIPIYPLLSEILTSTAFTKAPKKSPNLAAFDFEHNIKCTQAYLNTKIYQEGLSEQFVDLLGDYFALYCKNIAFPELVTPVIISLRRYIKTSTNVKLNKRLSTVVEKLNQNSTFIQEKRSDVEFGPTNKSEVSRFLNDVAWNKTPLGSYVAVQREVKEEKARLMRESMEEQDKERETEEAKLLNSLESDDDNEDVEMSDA

B1: Erb1 (protein, UniProt Q04660 1-807)
chain: MMAKNNKTTEAKMSKKRAASEESDVEEDEDKLLSVDGLIDAEASESDEDDDEYESAVEEKESSSDKEAQDDSDDDSDAELNKLLAEEEGDGEEDYDSSEFSDDTTSLTDRLSGVKLQTIVDPNIYSKYADGSDRIIKPEINPVYDSDDSDAETQNTIGNIPLSAYDEMPHIGYDINGKRIMRPAKGSALDQLLDSIELPEGWTGLLDKNSGSSLNLTKEELELISKIQRNEQTDDSINPYEPLIDWFTRHEEVMPLTAVPEPKRRFVPSKNEAKRVMKIVRAIREGRIIPPKKLKEMKEKEKIENYQYDLWGDSTETNDHVMHLRAPKLPPPTNEESYNPPEEYLLSPEEKEAWENTEYSERERNFIPQKYSALRKVPGYGESIRERFERSLDLYLAPRVRKNKLNIDPNSLIPELPSPKDLRPFPIRCSTIYAGHKGKVRTLSIDPSGLWLATGSDDGTVRVWEILTGREVYRTTLIDDEENPDYHIECIEWNPDANNGILAVAVGENIHLIVPPIFGYDIENNGKTKIEDGFGYDTFGTVKKSNLEVNENGDGDEDGENESAKNAVKKQVAQWNKPSQKQLEKDICITISCKKTVKKLSWHRKGDYFVTVQPDSGNTSVLIHQVSKHLTQSPFKKSKGIIMDAKFHPFKPQLFVCSQRYVRIYDLSQQILVKKLLPGARWLSKIDIHPRGDNLIASSFDKRVLWHDLDLASTPYKTLRYHEKAVRSVNFHKKLPLFSSAADDGTIHVFHATVYDDMMKNPMIVPLKKLTGHKVINSLGVLDAIWHPREAWLFSAGADNTARLWTT
B2: Nsa2 (protein, UniProt P40078 1-261)
chain: MPQNDYIERHIKQHGKRLDHEERKRKREARESHKISERAQKLTGWKGKQFAKKRYAEKVSMRKKIKAHEQSKVKGSSKPLDTDGDALPTYLLDREQNNTAKAISSSIKQKRLEKADKFSVPLPKVRGISEEEMFKVIKTGKSRSKSWKRMITKHTFVGEGFTRRPVKMERIIRPSALRQKKANVTHPELGVTVFLPILAVKKNPQSPMYTQLGVLTKGTIIEVNVSELGMVTAGGKVVWGKYAQVTNEPDRDGCVNAVLLV
B3: Ebp2 (protein, UniProt P36049 1-427)
chain: MAKGFKLKELLSHQKEIEKAEKLENDLKKKKSQELKKEEPTIVTASNLKKLEKKEKKADVKKEVAADTEEYQSQALSKKEKRKLKKELKKMQEQDATEAQKHMSGDEDESGDDREEEEEEEEEEEGRLDLEKLAKSDSESEDDSESENDSEEDEDVVAKEESEEKEEQEEEQDVPLSDVEFDSDADVVPHHKLTVNNTKAMKHALERVQLPWKKHSFQEHQSVTSETNTDEHIKDIYDDTERELAFYKQSLDAVLVARDELKRLKVPFKRPLDYFAEMVKSDEHMDKIKGKLIEEASDKKAREEARRQRQLKKFGKQVQNATLQKRQLEKRETLEKIKSLKNKRKHNEIDHSEFNVGVEEEVEGKRFDRGRPNGKRAAKNAKYGQGGMKRFKRKNDATSSADVSGFSSRKMKGKTNRPGKSRRARRF
B4: Nop15 (protein, UniProt P53927 1-220)
chain: MVKSTSKTSTKETVTKQPTEEKPIQEKEELALETSSSSSDEEDEKDEDEIEGLAASDDEQSGTHKIKRLNPKKQANEKKSKDKKTLEEYSGIIYVSRLPHGFHEKELSKYFAQFGDLKEVRLARNKKTGNSRHYGFLEFVNKEDAMIAQESMNNYLLMGHLLQVRVLPKGAKIEKLYKYKKRVLVEKGITKPVKQLKDNMKQKHEERIKKLAKSGIEFKW

These binders were tested against T1, Noc2-TAP (S. cerevisiae) (assay: affinity purification with mass spectrometry; Noc2-TAP and associated pre-ribosomal particles purified on magnetic beads coated with rabbit IgG from total cellular extracts of yeast (wild type and GAL1/10 r-protein expression mutants after 4 h in glucose medium); eluted proteins digested with trypsin, peptides labelled with iTRAQ and identified by mass spectrometry; levels normalised to Noc2-TAP).

Row | binding | Binder
1 | binds | B1
2 | binds | B2
3 | binds | B3
4 | binds | B4
